This series in a line: general procedure: Boc solid-phase peptide synthesis; Boc-Pro-O-Resin (Merrifield resin); DCC in dichloromethane (or DIC, with or without HOBT). The note with it: whole synthesis, scale 1.05 mmol, trifluoroacetate salt.

Non-standard residues stand in square brackets, D forms with d. pGlu = O=C1CC[C@@H](C(=O)O)N1; NMeS = CN[C@@H](CO)C(=O)O

The values that follow come from patent US5110904A (Abbott Laboratories, priority 1990, dated 1992).

For the substance [pGlu]HW[NMeS]Y[dL]LRP-NHEt, the crude mass is listed as 0.7 g.
